The list shows a part of the results.
Assays:
Test in all cases: log2 fold change, soluble protein after heating vs DMSO (PISA); higher = thermal stabilisation; K562 lysate, 10 uM; active = over 0.2 and 3.5 SD of the protein, either way, in both replicates (recomputed)
lapatinib = compound: CS(=O)(=O)CCNCc1ccc(-c2ccc3ncnc(Nc4ccc(OCc5cccc(F)c5)c(Cl)c4)c3c2)o1 [lapatinib]
Procedure, shortened: (§1)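 Values give the log-two fold change in thermal stability against solvent controls, from duplicates. Crude K562 extract at 1 mg/mL protein, made by dounce homogenisation in PBS pH 7.4 with 1 mM MgCl2, was treated with 10 μM compound for 30 min. After 3 min heating across 48°C-58°C, aliquots were pooled, adjusted to 0.5% NP-40 at 4°C and centrifuged at 21,000xg for 90 min. The supernatant was measured by TMTpro 16plex LC-MS/MS with channel sums equalised.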

Chains of the proteins cited; added tags and fusions are not shown. Lines headed by an entry give the natural chain unless they say otherwise; changes in a name come on top.
UniProt Q9NWY4: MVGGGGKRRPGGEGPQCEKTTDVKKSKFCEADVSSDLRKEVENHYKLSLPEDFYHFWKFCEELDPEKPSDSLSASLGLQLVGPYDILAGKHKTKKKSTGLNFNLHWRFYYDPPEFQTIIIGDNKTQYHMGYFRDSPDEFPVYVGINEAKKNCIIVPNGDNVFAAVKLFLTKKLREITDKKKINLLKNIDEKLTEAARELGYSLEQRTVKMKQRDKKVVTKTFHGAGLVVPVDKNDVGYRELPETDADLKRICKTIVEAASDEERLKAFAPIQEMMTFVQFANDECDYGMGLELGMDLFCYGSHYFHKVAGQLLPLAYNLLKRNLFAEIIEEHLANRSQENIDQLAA
UniProt P54652, whole entry, looked up: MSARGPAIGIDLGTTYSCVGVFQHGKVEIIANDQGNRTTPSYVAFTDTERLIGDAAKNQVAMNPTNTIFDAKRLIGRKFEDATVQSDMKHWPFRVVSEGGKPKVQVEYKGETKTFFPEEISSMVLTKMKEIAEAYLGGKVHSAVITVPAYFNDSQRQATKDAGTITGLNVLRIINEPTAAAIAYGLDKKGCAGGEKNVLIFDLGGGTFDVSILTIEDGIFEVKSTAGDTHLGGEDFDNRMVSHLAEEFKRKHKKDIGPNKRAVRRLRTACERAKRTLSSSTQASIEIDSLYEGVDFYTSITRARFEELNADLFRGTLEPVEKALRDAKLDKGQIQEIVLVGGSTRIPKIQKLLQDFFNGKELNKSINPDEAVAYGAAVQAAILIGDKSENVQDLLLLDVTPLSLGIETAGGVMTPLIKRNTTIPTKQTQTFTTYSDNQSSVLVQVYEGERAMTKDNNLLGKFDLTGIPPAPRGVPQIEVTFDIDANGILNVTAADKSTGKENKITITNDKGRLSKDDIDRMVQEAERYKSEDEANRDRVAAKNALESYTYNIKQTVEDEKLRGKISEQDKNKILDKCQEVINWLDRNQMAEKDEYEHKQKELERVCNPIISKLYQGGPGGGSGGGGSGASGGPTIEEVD
UniProt P31943: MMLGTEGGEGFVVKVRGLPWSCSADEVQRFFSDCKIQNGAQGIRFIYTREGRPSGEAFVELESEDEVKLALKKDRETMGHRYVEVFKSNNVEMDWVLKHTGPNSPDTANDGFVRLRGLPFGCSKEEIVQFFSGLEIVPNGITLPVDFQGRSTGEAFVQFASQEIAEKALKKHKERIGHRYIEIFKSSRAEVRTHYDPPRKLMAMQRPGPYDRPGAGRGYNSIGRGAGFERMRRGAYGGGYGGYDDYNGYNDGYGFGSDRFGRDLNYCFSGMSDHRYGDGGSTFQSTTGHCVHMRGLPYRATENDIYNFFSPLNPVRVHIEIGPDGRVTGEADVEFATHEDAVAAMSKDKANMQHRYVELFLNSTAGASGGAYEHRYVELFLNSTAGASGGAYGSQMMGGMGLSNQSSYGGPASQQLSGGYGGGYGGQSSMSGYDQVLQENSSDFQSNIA
UniProt Q6DN03, whole entry, looked up: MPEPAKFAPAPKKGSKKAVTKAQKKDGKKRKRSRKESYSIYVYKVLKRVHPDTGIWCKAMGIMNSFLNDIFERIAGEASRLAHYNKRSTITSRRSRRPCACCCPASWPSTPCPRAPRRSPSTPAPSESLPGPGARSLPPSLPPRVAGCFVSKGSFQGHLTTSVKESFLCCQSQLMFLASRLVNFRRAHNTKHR
UniProt Q00839, whole entry, looked up: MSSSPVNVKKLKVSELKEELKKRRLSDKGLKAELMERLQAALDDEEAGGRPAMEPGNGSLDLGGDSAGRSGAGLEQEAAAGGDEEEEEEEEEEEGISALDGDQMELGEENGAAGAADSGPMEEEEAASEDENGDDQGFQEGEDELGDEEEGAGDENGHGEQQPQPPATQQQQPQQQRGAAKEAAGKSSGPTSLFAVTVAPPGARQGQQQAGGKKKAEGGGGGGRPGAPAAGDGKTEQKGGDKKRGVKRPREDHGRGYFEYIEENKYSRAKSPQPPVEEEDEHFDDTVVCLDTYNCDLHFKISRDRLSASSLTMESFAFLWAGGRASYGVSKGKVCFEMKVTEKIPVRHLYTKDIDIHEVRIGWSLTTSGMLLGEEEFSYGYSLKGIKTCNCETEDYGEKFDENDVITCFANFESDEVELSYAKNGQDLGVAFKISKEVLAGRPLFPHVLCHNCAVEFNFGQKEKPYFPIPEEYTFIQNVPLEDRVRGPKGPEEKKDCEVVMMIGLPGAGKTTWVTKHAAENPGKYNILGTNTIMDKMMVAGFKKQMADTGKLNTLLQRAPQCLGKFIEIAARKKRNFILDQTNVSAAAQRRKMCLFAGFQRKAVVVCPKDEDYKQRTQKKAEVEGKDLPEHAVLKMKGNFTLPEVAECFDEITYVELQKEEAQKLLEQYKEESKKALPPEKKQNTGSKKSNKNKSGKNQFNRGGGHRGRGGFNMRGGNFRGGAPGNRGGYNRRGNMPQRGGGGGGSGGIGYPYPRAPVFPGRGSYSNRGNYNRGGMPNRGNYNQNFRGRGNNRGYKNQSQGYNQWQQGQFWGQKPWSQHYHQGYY
UniProt Q8NBQ5: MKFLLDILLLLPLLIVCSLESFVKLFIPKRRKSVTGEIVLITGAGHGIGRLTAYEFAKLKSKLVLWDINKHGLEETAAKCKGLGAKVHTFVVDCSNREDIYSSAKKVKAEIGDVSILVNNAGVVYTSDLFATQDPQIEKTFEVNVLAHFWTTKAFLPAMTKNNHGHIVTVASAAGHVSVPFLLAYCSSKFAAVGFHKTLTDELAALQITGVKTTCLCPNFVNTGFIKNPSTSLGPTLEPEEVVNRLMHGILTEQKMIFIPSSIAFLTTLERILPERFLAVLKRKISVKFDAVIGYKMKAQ
UniProt P08238, whole entry, looked up: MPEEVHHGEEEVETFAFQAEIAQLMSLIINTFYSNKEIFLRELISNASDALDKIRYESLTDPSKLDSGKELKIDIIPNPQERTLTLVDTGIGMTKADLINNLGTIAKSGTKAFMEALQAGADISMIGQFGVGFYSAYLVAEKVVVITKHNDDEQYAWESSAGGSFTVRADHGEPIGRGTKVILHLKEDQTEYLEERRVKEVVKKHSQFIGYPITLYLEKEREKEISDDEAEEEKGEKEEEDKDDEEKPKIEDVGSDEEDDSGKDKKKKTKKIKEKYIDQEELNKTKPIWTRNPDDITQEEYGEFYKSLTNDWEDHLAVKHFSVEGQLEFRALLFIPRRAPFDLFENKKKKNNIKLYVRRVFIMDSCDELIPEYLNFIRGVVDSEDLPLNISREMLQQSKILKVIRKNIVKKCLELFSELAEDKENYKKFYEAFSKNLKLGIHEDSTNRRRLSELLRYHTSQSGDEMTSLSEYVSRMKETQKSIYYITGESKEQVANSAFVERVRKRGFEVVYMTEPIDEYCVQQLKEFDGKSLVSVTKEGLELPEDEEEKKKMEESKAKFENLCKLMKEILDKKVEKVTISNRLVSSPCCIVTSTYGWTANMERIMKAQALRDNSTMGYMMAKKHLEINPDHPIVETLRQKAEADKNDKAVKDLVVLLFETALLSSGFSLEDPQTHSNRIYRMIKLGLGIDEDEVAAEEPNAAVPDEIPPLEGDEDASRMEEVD
UniProt Q9BQS7: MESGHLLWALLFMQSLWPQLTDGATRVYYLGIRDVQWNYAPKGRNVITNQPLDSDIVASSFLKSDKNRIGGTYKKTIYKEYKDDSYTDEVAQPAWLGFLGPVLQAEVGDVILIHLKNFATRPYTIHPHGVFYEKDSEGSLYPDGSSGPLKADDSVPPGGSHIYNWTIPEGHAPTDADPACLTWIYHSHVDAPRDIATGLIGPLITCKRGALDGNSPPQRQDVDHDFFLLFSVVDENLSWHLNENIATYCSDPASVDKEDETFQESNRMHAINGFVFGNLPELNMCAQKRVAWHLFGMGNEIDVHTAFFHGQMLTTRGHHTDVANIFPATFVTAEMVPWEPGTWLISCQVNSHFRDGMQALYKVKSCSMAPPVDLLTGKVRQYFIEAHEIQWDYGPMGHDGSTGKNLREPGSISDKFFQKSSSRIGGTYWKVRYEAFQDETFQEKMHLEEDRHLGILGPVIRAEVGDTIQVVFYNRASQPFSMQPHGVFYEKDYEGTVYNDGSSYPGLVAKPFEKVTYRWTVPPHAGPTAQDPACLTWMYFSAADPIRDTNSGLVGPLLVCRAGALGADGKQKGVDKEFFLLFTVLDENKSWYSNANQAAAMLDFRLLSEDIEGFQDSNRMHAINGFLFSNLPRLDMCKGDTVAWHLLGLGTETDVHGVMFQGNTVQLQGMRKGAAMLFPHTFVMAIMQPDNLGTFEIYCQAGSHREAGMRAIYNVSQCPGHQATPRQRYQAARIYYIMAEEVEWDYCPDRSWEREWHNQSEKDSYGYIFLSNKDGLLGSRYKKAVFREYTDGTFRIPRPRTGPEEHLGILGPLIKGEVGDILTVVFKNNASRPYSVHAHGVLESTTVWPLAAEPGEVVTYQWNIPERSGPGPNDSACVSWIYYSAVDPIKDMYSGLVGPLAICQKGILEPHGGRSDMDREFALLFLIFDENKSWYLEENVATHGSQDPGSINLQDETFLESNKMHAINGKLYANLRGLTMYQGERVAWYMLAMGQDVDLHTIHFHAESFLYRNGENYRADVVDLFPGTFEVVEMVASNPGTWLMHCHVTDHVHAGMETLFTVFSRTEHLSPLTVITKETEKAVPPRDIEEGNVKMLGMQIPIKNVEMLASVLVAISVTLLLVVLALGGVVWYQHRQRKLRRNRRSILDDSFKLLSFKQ
UniProt P35914: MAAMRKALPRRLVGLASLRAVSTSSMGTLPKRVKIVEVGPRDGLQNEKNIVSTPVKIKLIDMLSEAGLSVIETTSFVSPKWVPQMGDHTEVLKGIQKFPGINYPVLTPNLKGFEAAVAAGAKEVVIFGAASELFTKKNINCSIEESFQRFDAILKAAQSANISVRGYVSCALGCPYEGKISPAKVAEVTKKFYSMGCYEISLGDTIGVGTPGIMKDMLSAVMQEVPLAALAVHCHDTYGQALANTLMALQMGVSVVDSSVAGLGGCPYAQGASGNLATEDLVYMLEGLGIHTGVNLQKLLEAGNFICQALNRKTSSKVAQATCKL
UniProt P51659: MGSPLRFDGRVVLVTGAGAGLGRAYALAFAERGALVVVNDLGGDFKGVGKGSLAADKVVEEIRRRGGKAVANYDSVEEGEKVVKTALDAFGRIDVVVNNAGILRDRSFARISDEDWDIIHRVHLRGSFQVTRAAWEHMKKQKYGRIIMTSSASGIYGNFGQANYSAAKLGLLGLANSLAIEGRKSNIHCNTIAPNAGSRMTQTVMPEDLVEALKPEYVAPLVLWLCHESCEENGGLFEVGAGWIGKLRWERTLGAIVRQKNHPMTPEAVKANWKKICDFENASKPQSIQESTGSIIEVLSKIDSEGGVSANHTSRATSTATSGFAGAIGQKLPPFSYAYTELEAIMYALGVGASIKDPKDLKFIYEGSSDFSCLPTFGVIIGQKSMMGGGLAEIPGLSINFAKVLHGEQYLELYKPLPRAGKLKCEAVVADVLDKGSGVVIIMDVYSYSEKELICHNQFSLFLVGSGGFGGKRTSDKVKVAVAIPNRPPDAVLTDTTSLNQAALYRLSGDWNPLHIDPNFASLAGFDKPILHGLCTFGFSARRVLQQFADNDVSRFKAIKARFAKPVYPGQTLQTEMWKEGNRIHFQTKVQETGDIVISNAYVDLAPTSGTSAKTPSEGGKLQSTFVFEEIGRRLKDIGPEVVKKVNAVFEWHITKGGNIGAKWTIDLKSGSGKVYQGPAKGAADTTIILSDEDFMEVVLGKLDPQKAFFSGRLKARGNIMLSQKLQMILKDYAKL
UniProt Q96JB3: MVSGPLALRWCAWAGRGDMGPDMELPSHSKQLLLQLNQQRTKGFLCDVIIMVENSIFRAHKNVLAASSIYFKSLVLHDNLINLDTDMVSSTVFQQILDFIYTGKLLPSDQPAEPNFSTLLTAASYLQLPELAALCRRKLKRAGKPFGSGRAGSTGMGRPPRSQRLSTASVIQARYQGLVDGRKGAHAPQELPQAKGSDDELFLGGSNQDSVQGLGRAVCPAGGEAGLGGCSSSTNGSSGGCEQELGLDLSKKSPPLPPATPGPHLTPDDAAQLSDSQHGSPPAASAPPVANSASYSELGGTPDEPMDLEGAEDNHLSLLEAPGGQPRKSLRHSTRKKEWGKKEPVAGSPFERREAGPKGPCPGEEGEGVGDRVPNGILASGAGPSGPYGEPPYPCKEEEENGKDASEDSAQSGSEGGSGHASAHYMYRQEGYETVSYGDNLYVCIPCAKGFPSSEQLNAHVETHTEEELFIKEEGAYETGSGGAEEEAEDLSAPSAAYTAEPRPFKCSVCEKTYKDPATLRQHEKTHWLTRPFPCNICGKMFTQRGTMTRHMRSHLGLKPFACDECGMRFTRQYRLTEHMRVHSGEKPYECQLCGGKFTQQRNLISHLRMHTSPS
UniProt Q99714: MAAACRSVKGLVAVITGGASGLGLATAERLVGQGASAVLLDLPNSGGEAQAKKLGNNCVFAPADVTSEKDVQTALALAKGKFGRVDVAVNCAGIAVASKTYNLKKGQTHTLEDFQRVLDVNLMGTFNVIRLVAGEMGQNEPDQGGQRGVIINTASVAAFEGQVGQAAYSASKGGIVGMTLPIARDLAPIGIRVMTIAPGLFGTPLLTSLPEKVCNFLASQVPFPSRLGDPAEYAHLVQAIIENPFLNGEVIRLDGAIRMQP

pictilisib = compound: CS(=O)(=O)N1CCN(Cc2cc3nc(-c4cccc5[nH]ncc45)nc(N4CCOCC4)c3s2)CC1 [pictilisib]
Procedure, shortened: as §1

crizotinib = compound: C[C@@H](Oc1cc(-c2cnn(C3CCNCC3)c2)cnc1N)c1c(Cl)ccc(F)c1Cl [crizotinib]
Procedure, shortened: as §1

[1] = compound: C[C@H](C1=CC=C(C=C1)C(=O)NC2=C3C=CNC3=NC=C2)N
Procedure, shortened: as §1

duvelisib = compound: C[C@H](Nc1ncnc2nc[nH]c12)c1cc2cccc(Cl)c2c(=O)n1-c1ccccc1 [duvelisib]
Procedure, shortened: as §1

gandotinib = compound: Cc1cc(Nc2cc(CN3CCOCC3)c3nc(C)c(Cc4ccc(Cl)cc4F)n3n2)n[nH]1 [gandotinib]
Procedure, shortened: as §1

tozasertib = compound: Cc1cc(Nc2cc(N3CCN(C)CC3)nc(Sc3ccc(NC(=O)C4CC4)cc3)n2)n[nH]1 [tozasertib]
Procedure, shortened: as §1

doramapimod = compound: Cc1ccc(-n2nc(C(C)(C)C)cc2NC(=O)Nc2ccc(OCCN3CCOCC3)c3ccccc23)cc1 [doramapimod]
Procedure, shortened: as §1

bafetinib = compound: Cc1ccc(NC(=O)c2ccc(CN3CC[C@H](N(C)C)C3)c(C(F)(F)F)c2)cc1Nc1nccc(-c2cncnc2)n1 [bafetinib]
Procedure, shortened: as §1

[2] = compound: Cc1cccc(CC(=O)N2CCc3c2ccc(-c2cn(C)c4ncnc(N)c24)c3F)n1
Procedure, shortened: as §1

nilotinib = compound: Cc1cn(-c2cc(NC(=O)c3ccc(C)c(Nc4nccc(-c5cccnc5)n4)c3)cc(C(F)(F)F)c2)cn1 [nilotinib]
Procedure, shortened: as §1

[3] = compound: Cc1nc(Nc2n[nH]c3c2CN(C(=O)N[C@H](CN(C)C)c2ccccc2)C3(C)C)c2sccc2n1
Procedure, shortened: as §1

dasatinib = compound: Cc1nc(Nc2ncc(C(=O)Nc3c(C)cccc3Cl)s2)cc(N2CCN(CCO)CC2)n1 [dasatinib]
Procedure, shortened: as §1

[4] = compound: Cc1ncc(-c2ccnc(Nc3ccc(S(C)(=O)=O)cc3)n2)n1C(C)C
Procedure, shortened: as §1

[5] = compound: Cn1cc(-c2ccc3c(c2)CCN3C(=O)Cc2cccc(C(F)(F)F)c2)c2c(N)ncnc21
Procedure, shortened: as §1

quisinostat = compound: Cn1cc(CNCC2CCN(c3ncc(C(=O)NO)cn3)CC2)c2ccccc21 [quisinostat]
Procedure, shortened: as §1

tipifarnib = compound: Cn1cncc1[C@@](N)(c1ccc(Cl)cc1)c1ccc2c(c1)c(-c1cccc(Cl)c1)cc(=O)n2C [tipifarnib]
Procedure, shortened: as §1

[6] = compound: NC(=O)Nc1cc(-c2cccc(F)c2)sc1C(=O)N[C@H]1CCCNC1
Procedure, shortened: as §1

[7] = compound: NC(=O)c1cnc(N[C@@H]2CCCC[C@@H]2N)nc1Nc1cccc(-n2nccn2)c1
Procedure, shortened: as §1

[8] = compound: NC1(c2ccc(-c3nc4ccn5c(=O)[nH]nc5c4cc3-c3ccccc3)cc2)CCC1
Procedure, shortened: as §1

Measured: log2 fold change

HPF1 (UniProt Q9NWY4)
inactive: lapatinib -0.04 | pictilisib -0.01 | crizotinib -0.015 | [1] 0.016 | duvelisib 0.024 | gandotinib -0.06 | tozasertib 0.014 | doramapimod 0.02 | bafetinib -0.062 | [2] 0.027 | nilotinib 0.024 | [3] -0.012 | dasatinib -0.047 | [4] -0.041 | [5] 0.083 | quisinostat -0.04 | tipifarnib -0.009 | [6] 0.051 | [7] 0.048 | [8] -0.035

HMMR isoform 3 (UniProt O75330)
inactive: lapatinib 0.003 | pictilisib 0.005 | crizotinib 0.031 | [1] -0.009 | duvelisib -0.012 | gandotinib 0.024 | tozasertib 0.018 | doramapimod 0.021 | bafetinib -0.02 | [2] 0.005 | nilotinib -0.03 | [3] 0.02 | dasatinib 0.008 | [4] -0.004 | [5] 0.026 | quisinostat -0.009 | tipifarnib -0.019 | [6] -0.012 | [7] 0.014 | [8] 0.03

HSPA2 (UniProt P54652)
inactive: lapatinib 0.046 | pictilisib 0.012 | crizotinib -0.018 | [1] -0.11 | duvelisib -0.017 | gandotinib 0.241 | tozasertib 0.034 | doramapimod 0.081 | bafetinib 0.094 | [2] 0.356 | nilotinib -0.016 | [3] 0.013 | dasatinib -0.079 | [4] 0.144 | [5] -0.078 | quisinostat 0.026 | tipifarnib -0.093 | [6] 0.05 | [7] -0.044 | [8] 0.054

HEXA (UniProt P06865)
inactive: lapatinib -0.008 | pictilisib -0.032 | crizotinib 0.01 | [1] -0.034 | duvelisib -0.03 | gandotinib 0.012 | tozasertib 0.002 | doramapimod -0.006 | bafetinib 0.011 | [2] -0.001 | nilotinib 0.028 | [3] -0.035 | dasatinib -0.022 | [4] -0.014 | [5] 0.008 | quisinostat 0.005 | tipifarnib 0.011 | [6] -0.031 | [7] -0.008 | [8] 0.004

HNRNPH1 (UniProt P31943)
inactive: lapatinib 0.023 | pictilisib -0.016 | crizotinib -0.02 | [1] -0.018 | duvelisib 0.012 | gandotinib 0.006 | tozasertib -0.036 | doramapimod 0.043 | bafetinib -0.027 | [2] 0.006 | nilotinib -0.04 | [3] -0.006 | dasatinib -0.02 | [4] 0.016 | [5] -0.007 | quisinostat -0.084 | tipifarnib -0.035 | [6] 0.018 | [7] -0.005 | [8] -0.04

HIST2H2BC (UniProt Q6DN03)
inactive: lapatinib -0.024 | pictilisib 0.02 | crizotinib -0.024 | [1] 0.183 | duvelisib -0.083 | gandotinib -0.054 | tozasertib 0.019 | doramapimod 0.007 | bafetinib 0.018 | [2] -0.019 | nilotinib 0.003 | [3] -0.021 | dasatinib 0.051 | [4] -0.01 | [5] -0.079 | quisinostat -0.014 | tipifarnib 0.037 | [6] 0.016 | [7] -0.01 | [8] 0.058

HNRNPU (UniProt Q00839)
inactive: lapatinib -0.003 | pictilisib -0.007 | crizotinib 0.032 | [1] 0.05 | duvelisib 0.002 | gandotinib -0.091 | tozasertib 0.002 | doramapimod 0.002 | bafetinib 0.019 | [2] -0.065 | nilotinib -0.022 | [3] 0.002 | dasatinib -0.032 | [4] 0.013 | [5] 0.01 | quisinostat -0.002 | tipifarnib 0.037 | [6] 0.029 | [7] 0.001 | [8] 0.005

HERC1 (UniProt Q15751)
inactive: lapatinib -0.037 | pictilisib -0.041 | crizotinib -0.023 | [1] -0.019 | duvelisib 0.028 | gandotinib -0.03 | tozasertib 0.005 | doramapimod 0.009 | bafetinib -0.041 | [2] 0.02 | nilotinib 0.008 | [3] 0.004 | dasatinib -0.011 | [4] 0.019 | [5] 0.011 | quisinostat -0.041 | tipifarnib -0.007 | [6] 0.037 | [7] -0.004 | [8] -0.008

HSD17B11 (UniProt Q8NBQ5)
inactive: lapatinib 0.018 | pictilisib -0.008 | crizotinib 0.053 | [1] -0.015 | duvelisib 0.055 | gandotinib 0.024 | tozasertib 0.019 | doramapimod 0.002 | bafetinib -0.001 | [2] 0.045 | nilotinib -0.025 | [3] -0.041 | dasatinib -0.014 | [4] 0.001 | [5] 0.012 | quisinostat 0.038 | tipifarnib 0.015 | [6] -0.003 | [7] -0.027 | [8] 0.009

Taken from the listing (four entries):
HMMR isoform 3 (UniProt O75330)
inactive: lapatinib 0.003 | pictilisib 0.005 | crizotinib 0.031 | [1] -0.009 | duvelisib -0.012 | gandotinib 0.024 | tozasertib 0.018 | doramapimod 0.021 | bafetinib -0.02 | [2] 0.005 | nilotinib -0.03 | [3] 0.02 | dasatinib 0.008 | [4] -0.004 | [5] 0.026 | quisinostat -0.009 | tipifarnib -0.019 | [6] -0.012 | [7] 0.014 | [8] 0.03

HSPA2 (UniProt P54652)
inactive: lapatinib 0.046 | pictilisib 0.012 | crizotinib -0.018 | [1] -0.11 | duvelisib -0.017 | gandotinib 0.241 | tozasertib 0.034 | doramapimod 0.081 | bafetinib 0.094 | [2] 0.356 | nilotinib -0.016 | [3] 0.013 | dasatinib -0.079 | [4] 0.144 | [5] -0.078 | quisinostat 0.026 | tipifarnib -0.093 | [6] 0.05 | [7] -0.044 | [8] 0.054

HEXA (UniProt P06865)
inactive: lapatinib -0.008 | pictilisib -0.032 | crizotinib 0.01 | [1] -0.034 | duvelisib -0.03 | gandotinib 0.012 | tozasertib 0.002 | doramapimod -0.006 | bafetinib 0.011 | [2] -0.001 | nilotinib 0.028 | [3] -0.035 | dasatinib -0.022 | [4] -0.014 | [5] 0.008 | quisinostat 0.005 | tipifarnib 0.011 | [6] -0.031 | [7] -0.008 | [8] 0.004

HNRNPH1 (UniProt P31943)
inactive: lapatinib 0.023 | pictilisib -0.016 | crizotinib -0.02 | [1] -0.018 | duvelisib 0.012 | gandotinib 0.006 | tozasertib -0.036 | doramapimod 0.043 | bafetinib -0.027 | [2] 0.006 | nilotinib -0.04 | [3] -0.006 | dasatinib -0.02 | [4] 0.016 | [5] -0.007 | quisinostat -0.084 | tipifarnib -0.035 | [6] 0.018 | [7] -0.005 | [8] -0.04

Additional results follow.

HNRNPA1 (UniProt P09651)
inactive: lapatinib -0.02 | pictilisib -0.026 | crizotinib 0.003 | [1] 0.116 | duvelisib 0.004 | gandotinib -0.038 | tozasertib -0.017 | doramapimod -0.031 | bafetinib 0.102 | [2] 0.006 | nilotinib -0.002 | [3] -0.057 | dasatinib 0.027 | [4] 0.001 | [5] 0.023 | quisinostat 0.019 | tipifarnib 0.011 | [6] 0.007 | [7] -0.003 | [8] 0.005

HSP90AB1 (UniProt P08238)
inactive: lapatinib 0.013 | pictilisib -0.008 | crizotinib 0.043 | [1] 0.097 | duvelisib -0.021 | gandotinib -0.072 | tozasertib -0.016 | doramapimod -0.034 | bafetinib 0.031 | [2] -0.064 | nilotinib 0 | [3] 0.003 | dasatinib 0.01 | [4] 0.005 | [5] -0.002 | quisinostat 0.083 | tipifarnib 0.012 | [6] -0.007 | [7] -0.014 | [8] 0.008

HEPH isoform 3 (UniProt Q9BQS7)
inactive: lapatinib -0.007 | pictilisib 0.009 | crizotinib -0.008 | [1] -0.023 | duvelisib -0.008 | gandotinib 0.02 | tozasertib 0.048 | doramapimod 0.001 | bafetinib -0.079 | [2] 0.031 | nilotinib -0.047 | [3] -0.023 | dasatinib -0.047 | [4] 0.033 | [5] 0.009 | quisinostat 0.002 | tipifarnib -0.042 | [6] -0.002 | [7] 0.034 | [8] -0.022

HMGCL (UniProt P35914)
inactive: lapatinib -0.005 | pictilisib -0.029 | crizotinib 0.012 | [1] 0.033 | duvelisib 0.002 | gandotinib -0.029 | tozasertib 0.026 | doramapimod 0.008 | bafetinib -0.016 | [2] -0.031 | nilotinib 0.011 | [3] -0.041 | dasatinib 0.029 | [4] 0.023 | [5] 0.02 | quisinostat -0.017 | tipifarnib -0.013 | [6] 0.018 | [7] -0.033 | [8] 0.015

HSD17B4 (UniProt P51659)
inactive: lapatinib 0 | pictilisib -0.007 | crizotinib 0 | [1] -0.025 | duvelisib -0.03 | gandotinib 0.028 | tozasertib 0.006 | doramapimod 0.008 | bafetinib 0.003 | [2] -0.002 | nilotinib -0.004 | [3] -0.028 | dasatinib 0.012 | [4] -0.01 | [5] 0.019 | quisinostat 0.011 | tipifarnib -0.015 | [6] -0.028 | [7] -0.018 | [8] -0.027

HIC2 (UniProt Q96JB3)
inactive: lapatinib 0.036 | pictilisib 0.002 | crizotinib 0.016 | [1] -0.013 | duvelisib 0.027 | gandotinib 0.013 | tozasertib 0.016 | doramapimod -0.013 | bafetinib -0.059 | [2] 0.05 | nilotinib 0.053 | [3] 0 | dasatinib -0.032 | [4] 0.005 | [5] 0.031 | quisinostat 0.078 | tipifarnib -0.076 | [6] -0.027 | [7] 0.019 | [8] -0.071

HSD17B10 (UniProt Q99714)
inactive: lapatinib -0.031 | pictilisib -0.013 | crizotinib 0.002 | [1] -0.049 | duvelisib 0.013 | gandotinib 0.022 | tozasertib -0.031 | doramapimod -0.008 | bafetinib 0 | [2] 0.026 | nilotinib 0 | [3] -0.044 | dasatinib -0.034 | [4] -0.001 | [5] -0.017 | quisinostat -0.01 | tipifarnib 0.008 | [6] 0.013 | [7] -0.002 | [8] 0.005

Source: the supplement of paper PMC10849652
